# Results reported in the supplement of paper PMC8728848.
# The other results are listed elsewhere or left out.
# What was measured:
# Test in all cases: glycan array binding signal (z-score within array); higher = stronger binding
# Settings in all cases: glycan notation: IUPAC condensed, linker removed
# [1] = molecular target: Gal(b1-4)GlcNAc(b1-3)Gal(b1-4)GlcNAc(b1-2)[Gal(b1-4)GlcNAc(b1-3)Gal(b1-4)GlcNAc(b1-6)]Man(a1-6)[Gal(b1-4)GlcNAc(b1-3)Gal(b1-4)GlcNAc(b1-2)Man(a1-3)]Man(b1-4)GlcNAc(b1-4)GlcNAc
# How it was run: (§1)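 From the Consortium for Functional Glycomics database, 3228 arrays were curated, keeping only those whose protein sequence was available. Binding is given as a within-array Z-score averaged across arrays sharing a protein sequence and across linkers. Negative Z-scores can be read as non-binding.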
# [2] = molecular target: Gal(b1-4)GlcNAc(b1-3)Gal(b1-4)GlcNAc(b1-2)[Gal(b1-4)GlcNAc(b1-3)Gal(b1-4)GlcNAc(b1-6)]Man(a1-6)[Gal(b1-4)GlcNAc(b1-3)Gal(b1-4)GlcNAc(b1-2)Man(a1-3)]Man(b1-4)GlcNAc(b1-4)[Fuc(a1-6)]GlcNAc
# How it was run: as §1
# [3] = molecular target: Gal(b1-4)GlcNAc(b1-3)Gal(b1-4)GlcNAc(b1-3)Gal(b1-4)GlcNAc
# How it was run: as §1
# [4] = molecular target: Gal(b1-4)GlcNAc(b1-3)Gal(b1-4)GlcNAc(b1-3)Gal(b1-4)GlcNAc(b1-2)Man(a1-3)[Gal(b1-4)GlcNAc(b1-3)Gal(b1-4)GlcNAc(b1-3)Gal(b1-4)GlcNAc(b1-2)Man(a1-6)]Man(b1-4)GlcNAc(b1-4)GlcNAc
# How it was run: as §1
# [5] = molecular target: Gal(b1-4)GlcNAc(b1-3)Gal(b1-4)GlcNAc(b1-3)Gal(b1-4)GlcNAc(b1-2)Man(a1-3)[Gal(b1-4)GlcNAc(b1-3)Gal(b1-4)GlcNAc(b1-3)Gal(b1-4)GlcNAc(b1-2)Man(a1-6)]Man(b1-4)GlcNAc(b1-4)[Fuc(a1-6)]GlcNAc
# How it was run: as §1
# [6] = molecular target: Gal(b1-4)GlcNAc(b1-3)Gal(b1-4)GlcNAc(b1-3)Gal(b1-4)GlcNAc(b1-2)[Gal(b1-4)GlcNAc(b1-3)Gal(b1-4)GlcNAc(b1-3)Gal(b1-4)GlcNAc(b1-6)]Man(a1-6)[Gal(b1-4)GlcNAc(b1-3)Gal(b1-4)GlcNAc(b1-3)Gal(b1-4)GlcNAc(b1-2)Man(a1-3)]Man(b1-4)GlcNAc(b1-4)[Fuc(a1-6)]GlcNAc
# How it was run: as §1
# [7] = molecular target: Gal(b1-4)GlcNAc(b1-3)Gal(b1-4)GlcNAc(b1-3)Gal(b1-4)GlcNAc(b1-3)Gal(b1-4)GlcNAc(b1-2)Man(a1-3)[Gal(b1-4)GlcNAc(b1-3)Gal(b1-4)GlcNAc(b1-3)Gal(b1-4)GlcNAc(b1-3)Gal(b1-4)GlcNAc(b1-2)Man(a1-6)]Man(b1-4)GlcNAc(b1-4)GlcNAc
# How it was run: as §1
# [8] = molecular target: Gal(b1-4)GlcNAc(b1-3)Gal(b1-4)GlcNAc(b1-3)Gal(b1-4)GlcNAc(b1-3)Gal(b1-4)GlcNAc(b1-2)Man(a1-3)[Gal(b1-4)GlcNAc(b1-3)Gal(b1-4)GlcNAc(b1-3)Gal(b1-4)GlcNAc(b1-3)Gal(b1-4)GlcNAc(b1-2)Man(a1-6)]Man(b1-4)GlcNAc(b1-4)[Fuc(a1-6)]GlcNAc
# How it was run: as §1
# [9] = molecular target: Gal(b1-4)GlcNAc(b1-3)Gal(b1-4)GlcNAc(b1-3)Gal(b1-4)GlcNAc(b1-3)Gal(b1-4)GlcNAc(b1-2)[Gal(b1-4)GlcNAc(b1-3)Gal(b1-4)GlcNAc(b1-3)Gal(b1-4)GlcNAc(b1-3)Gal(b1-4)GlcNAc(b1-6)]Man(a1-6)[Gal(b1-4)GlcNAc(b1-3)Gal(b1-4)GlcNAc(b1-3)Gal(b1-4)GlcNAc(b1-3)Gal(b1-4)GlcNAc(b1-2)Man(a1-3)]Man(b1-4)GlcNAc(b1-4)[Fuc(a1-6)]GlcNAc
# How it was run: as §1
# [10] = molecular target: Gal(b1-4)GlcNAc(b1-3)Gal(b1-4)GlcNAc(b1-3)Gal(b1-4)GlcNAc(b1-3)Gal(b1-4)GlcNAc(b1-3)Gal(b1-4)GlcNAc(b1-2)Man(a1-3)[Gal(b1-4)GlcNAc(b1-3)Gal(b1-4)GlcNAc(b1-3)Gal(b1-4)GlcNAc(b1-3)Gal(b1-4)GlcNAc(b1-3)Gal(b1-4)GlcNAc(b1-2)Man(a1-6)]Man(b1-4)GlcNAc(b1-4)GlcNAc
# How it was run: as §1
# [11] = molecular target: Gal(b1-4)GlcNAc(b1-3)Gal(b1-4)GlcNAc(b1-3)Gal(b1-4)GlcNAc(b1-3)Gal(b1-4)GlcNAc(b1-3)Gal(b1-4)GlcNAc(b1-2)Man(a1-3)[Gal(b1-4)GlcNAc(b1-3)Gal(b1-4)GlcNAc(b1-3)Gal(b1-4)GlcNAc(b1-3)Gal(b1-4)GlcNAc(b1-3)Gal(b1-4)GlcNAc(b1-2)Man(a1-6)]Man(b1-4)GlcNAc(b1-4)[Fuc(a1-6)]GlcNAc
# How it was run: as §1
# [12] = molecular target: Gal(b1-4)GlcNAc(b1-3)Gal(b1-4)GlcNAc(b1-3)Gal(b1-4)GlcNAc(b1-3)Gal(b1-4)GlcNAc(b1-3)Gal(b1-4)GlcNAc(b1-2)[Gal(b1-4)GlcNAc(b1-3)Gal(b1-4)GlcNAc(b1-3)Gal(b1-4)GlcNAc(b1-3)Gal(b1-4)GlcNAc(b1-3)Gal(b1-4)GlcNAc(b1-6)]Man(a1-6)[Gal(b1-4)GlcNAc(b1-3)Gal(b1-4)GlcNAc(b1-3)Gal(b1-4)GlcNAc(b1-3)Gal(b1-4)GlcNAc(b1-3)Gal(b1-4)GlcNAc(b1-2)Man(a1-3)]Man(b1-4)GlcNAc(b1-4)[Fuc(a1-6)]GlcNAc
# How it was run: as §1
# [13] = molecular target: Gal(b1-4)GlcNAc(b1-3)Gal(b1-4)GlcNAc(b1-3)Gal(b1-4)GlcNAc(b1-3)Gal(b1-4)GlcNAc(b1-3)Gal(b1-4)GlcNAc(b1-3)Gal(b1-4)GlcNAc(b1-2)Man(a1-3)[Gal(b1-4)GlcNAc(b1-3)Gal(b1-4)GlcNAc(b1-3)Gal(b1-4)GlcNAc(b1-3)Gal(b1-4)GlcNAc(b1-3)Gal(b1-4)GlcNAc(b1-3)Gal(b1-4)GlcNAc(b1-2)Man(a1-6)]Man(b1-4)GlcNAc(b1-4)GlcNAc
# How it was run: as §1
# [14] = molecular target: Gal(b1-4)GlcNAc(b1-3)Gal(b1-4)GlcNAc(b1-3)GalNAc
# How it was run: as §1
# [15] = molecular target: Gal(b1-4)GlcNAc(b1-3)Gal(b1-4)GlcNAc(b1-3)[Gal(b1-4)GlcNAc(b1-3)Gal(b1-4)GlcNAc(b1-6)]GalNAc
# How it was run: as §1
# [16] = molecular target: Gal(b1-4)GlcNAc(b1-3)Gal(b1-4)GlcNAc(b1-6)[Gal(b1-3)]GalNAc
# How it was run: as §1
# [17] = molecular target: Gal(b1-4)GlcNAc(b1-3)Gal(b1-4)[Fuc(a1-3)]GlcNAc(b1-3)Gal(b1-4)[Fuc(a1-3)]GlcNAc
# How it was run: as §1
# [18] = molecular target: Gal(b1-4)GlcNAc(b1-3)GalNAc
# How it was run: as §1
# [19] = molecular target: Gal(b1-4)GlcNAc(b1-3)[Fuc(a1-3)GlcNAc(b1-6)]Gal(b1-4)Glc
# How it was run: as §1
# [20] = molecular target: Gal(b1-4)GlcNAc(b1-3)[Gal(b1-4)GlcNAc(b1-6)]Gal(b1-4)GlcNAc
# How it was run: as §1
# [21] = molecular target: Gal(b1-4)GlcNAc(b1-3)[GlcNAc(b1-6)]Gal(b1-4)GlcNAc
# How it was run: as §1
# [22] = molecular target: Gal(b1-4)GlcNAc(b1-6)Gal(b1-4)GlcNAc
# How it was run: as §1
# [23] = molecular target: Gal(b1-4)GlcNAc(b1-6)GalNAc
# How it was run: as §1
# [24] = molecular target: Gal(b1-4)GlcNAc(b1-6)[Gal(b1-3)]GalNAc
# How it was run: as §1
# [25] = molecular target: Gal(b1-4)GlcNAc(b1-6)[Gal(b1-4)GlcNAc(b1-3)]GalNAc
# How it was run: as §1
# [26] = molecular target: Gal(b1-4)GlcNAc6P
# How it was run: as §1
# [27] = molecular target: Gal(b1-6)Gal
# How it was run: as §1
# [28] = molecular target: Gal3S(b1-3)GalNAc
# How it was run: as §1
# [29] = molecular target: Gal3S(b1-3)GlcNAc
# How it was run: as §1
# [30] = molecular target: Gal3S(b1-3)[Fuc(a1-4)]GlcNAc
# How it was run: as §1
# [31] = molecular target: Gal3S(b1-4)Glc
# How it was run: as §1
# [32] = molecular target: Gal3S(b1-4)Glc6S
# How it was run: as §1
# [33] = molecular target: Gal3S(b1-4)GlcNAc
# How it was run: as §1
# [34] = molecular target: Gal3S(b1-4)[Fuc(a1-3)]Glc6S
# How it was run: as §1
# [35] = molecular target: Gal3S(b1-4)[Fuc(a1-3)]GlcNAc
# How it was run: as §1
# [36] = molecular target: Gal3S(b1-4)[Fuc(a1-3)]GlcNAc6S
# How it was run: as §1
# [37] = molecular target: Gal3S4S(b1-4)GlcNAc
# How it was run: as §1
# [38] = molecular target: Gal3S6S(b1-4)GlcNAc
# How it was run: as §1
# [39] = molecular target: Gal3S6S(b1-4)GlcNAc6S
# How it was run: as §1
# [40] = molecular target: Gal4S(b1-4)GlcNAc
# How it was run: as §1
# [41] = molecular target: Gal4S6S(b1-4)GlcNAc
# How it was run: as §1
# [42] = molecular target: Gal6P(b1-4)GlcNAc
# How it was run: as §1
# [43] = molecular target: Gal6S(b1-3)GlcNAc
# How it was run: as §1
# [44] = molecular target: Gal6S(b1-3)GlcNAc6S
# How it was run: as §1
# [45] = molecular target: Gal6S(b1-4)Glc
# How it was run: as §1
binder,measurement,setting,value
Pwp7 (Candida glabrata) (protein) MGSSHHHHHHSSGLVPRGSHMASKNPVDFPNLCQYPNLDGAVAGFDTEIYNADPSILINFSLWPILQFPKEWHKTIGRAITTQTNFKLPASDTTLFGVSIPTQNILIEFRGYFIPPKSGTYTFALYLTDDGSAMFLGNDAAFPCGNITSWSNPTNDQVSVSDYDPKKKTLTVYMVAGVAYPLRIAYYNREKGGSLTASFVDPDGLTHSDWNGYIWTLPSCDNCKYS,glycan array binding signal (z-score),[1],4.75
same,glycan array binding signal (z-score),[2],0.752
same,glycan array binding signal (z-score),[3],-0.205
same,glycan array binding signal (z-score),[4],0.929
same,glycan array binding signal (z-score),[5],0.805
same,glycan array binding signal (z-score),[6],0.468
same,glycan array binding signal (z-score),[7],1.16
same,glycan array binding signal (z-score),[8],1.19
same,glycan array binding signal (z-score),[9],0.261
same,glycan array binding signal (z-score),[10],1.68
same,glycan array binding signal (z-score),[11],2.19
same,glycan array binding signal (z-score),[12],0.783
same,glycan array binding signal (z-score),[13],1.86
same,glycan array binding signal (z-score),[14],1.71
same,glycan array binding signal (z-score),[15],2.23
same,glycan array binding signal (z-score),[16],1.95
same,glycan array binding signal (z-score),[17],0.953
same,glycan array binding signal (z-score),[18],-0.111
same,glycan array binding signal (z-score),[19],0.601
same,glycan array binding signal (z-score),[20],-0.2
same,glycan array binding signal (z-score),[21],0.165
same,glycan array binding signal (z-score),[22],-0.763
same,glycan array binding signal (z-score),[23],-0.893
same,glycan array binding signal (z-score),[24],-0.028
same,glycan array binding signal (z-score),[25],-0.209
same,glycan array binding signal (z-score),[26],1.36
same,glycan array binding signal (z-score),[27],-0.152
same,glycan array binding signal (z-score),[28],-1.22
same,glycan array binding signal (z-score),[29],-0.644
same,glycan array binding signal (z-score),[30],-0.807
same,glycan array binding signal (z-score),[31],-0.515
same,glycan array binding signal (z-score),[32],-0.585
same,glycan array binding signal (z-score),[33],-0.642
same,glycan array binding signal (z-score),[34],0.032
same,glycan array binding signal (z-score),[35],-1.3
same,glycan array binding signal (z-score),[36],-0.723
same,glycan array binding signal (z-score),[37],-0.816
same,glycan array binding signal (z-score),[38],-0.247
same,glycan array binding signal (z-score),[39],-0.801
same,glycan array binding signal (z-score),[40],-1.16
same,glycan array binding signal (z-score),[41],-0.806
same,glycan array binding signal (z-score),[42],-0.135
same,glycan array binding signal (z-score),[43],-1.4
same,glycan array binding signal (z-score),[44],-0.368
same,glycan array binding signal (z-score),[45],-0.797

# Reformatted tab-delimited: part of the list above.
binder	measurement	setting	value
Pwp7 (Candida glabrata) (protein) MGSSHHHHHHSSGLVPRGSHMASKNPVDFPNLCQYPNLDGAVAGFDTEIYNADPSILINFSLWPILQFPKEWHKTIGRAITTQTNFKLPASDTTLFGVSIPTQNILIEFRGYFIPPKSGTYTFALYLTDDGSAMFLGNDAAFPCGNITSWSNPTNDQVSVSDYDPKKKTLTVYMVAGVAYPLRIAYYNREKGGSLTASFVDPDGLTHSDWNGYIWTLPSCDNCKYS	glycan array binding signal (z-score)	[7]	1.16
same	glycan array binding signal (z-score)	[8]	1.19
same	glycan array binding signal (z-score)	[9]	0.261
